Assay results as given in US11352395B2, “Anticancer peptides” (IDP DISCOVERY PHARMA, S.L., priority 2017, dated 2022).
For at least one compound, name, drawing or mass did not settle the structure. Some entries repeat one wording, which the source may state once for all of them. *1 amine or outer side, *2 acyl side, *3 side chain or, on linkers, in order; H or OH if unused. Where a SMILES comes first, the peptide text is derived from it. Bridges are numbered along the chain shown (N, C = ends). [ ]: non-standard residue; d: D form. ξ: configuration not given here. ξαMeNle(6-ylidene) = CC(CCCC=[*:3])(N[*:1])C(=O)[*:2]; X1 = CC(CCCCCCC=[*:3])(N[*:1])C(=O)[*:2]

Assays:
[1] = tested on: tumor cell lines; assay: Anti-cancer activity in tumor cell lines (summary statements); assay type: cell-based
Method: NCI-H524 were seeded at a density of 2500 cells/well in 96 well plates; […]6, 12015, 12089 and GBM-27 were dissociated with Accumax and plate on p96 wells covered with Matrigel. After 24 h, the compounds to be tested were added to calculate the dose/response curve at the starting concentration of 100 μM with serial dilutions (1:1). Controls are the untreated cells. Each experiment was performed in triplicate. Cells were incubated during 72-96 h in incubator under CO2 atmosphere at 37° C. Cell viability was measured by means of Alamar Blue® (Biosource DAL1100) and […], after treatment with Propidium iodide and Hoechst (GE Healthcare), following manufacturer instructions. Data analysis was performed calculating the percentage of cell viability normalized vs. the values of negative control, which was considered equal to 100%. The dose/response curve was fitted through the sigmoidal equation dose-response (variable slope) and the EC50 values were calculated as follow: Y=Bottom+(Top-Bottom)/(1+10^{[(Log EC50-X)*HillSlope]}, where: X is compound concentration (log scale) and Y is the response

[2] = tested on: RG1 cells; assay: Annexin V assay by flow cytometry (apoptosis induction); assay type: cell-based, human; conditions: 10 uM, 96 hr
[3] = tested on: RG1 cells subcutaneous xenograft; assay: Subcutaneous xenograft model, tumor growth in vivo; design: species or system Nude immunosuppressed mice; conditions: for tumor growth / cancer progression (in words): RG1 xenograft, vs control; for tumor growth / cancer progression (in words) / Normalized Tumor Volume: 10 mg/kg i.v. 3 times per week

`CC(C)C[C@H](NC(=O)[C@H](Cc1ccccc1)NC(=O)C1(C)CCCC=CCCCC(C)(NC(=O)[C@H](CC(N)=O)NC(=O)[C@H](CCCNC(=N)N)NC(=O)[C@H](CCCNC(=N)N)NC(=O)[C@H](CCC(N)=O)NC(=O)[C@@H](N)CCCNC(=N)N)C(=O)N[C@@H](CC(C)C)C(=O)N[C@@H](CCCNC(=N)N)C(=O)N[C@@H](CO)C(=O)N1)C(=O)N[C@H](C(=O)N[C@@H](CC(C)C)C(=O)N[C@@H](CCCNC(=N)N)C(=O)N[C@@H](CC(=O)O)C(=O)N[C@@H](Cc1c[nH]cn1)C(N)=O)[C@@H](C)O` (stereo partly drawn) [IDP-NS02] (H-RQRRN[ξαMeNle(6-ylidene)]LRS[ξαMeNle(6-ylidene)]FLTLRDH-NH2; staple 6-10; N-terminus and C-terminus assumed) was tested, and the “anti-cancer activity (in words)” value ([1]; tumor cell lines) was “anti-cancer activity”.
With `CC[C@H](C)[C@@H]1NC(=O)[C@H](C(C)C)NC(=O)[C@H](C(C)C)NC(=O)C(C)(NC(=O)[C@H](C)NC(=O)[C@H](C)N)CCCCCCC=CCCCC(C)(C(=O)N[C@H](C(=O)N[C@@H](CCC(=O)O)C(=O)N[C@@H](Cc2ccc(O)cc2)C(=O)N[C@H](C(=O)N[C@@H](Cc2c[nH]cn2)C(=O)N[C@@H](CO)C(N)=O)C(C)C)[C@@H](C)O)NC(=O)[C@H](CCCCN)NC(=O)[C@H](CCCCN)NC(=O)[C@H](CC(C)C)NC1=O` (stereo partly drawn) [IDP-NS10] (H-AA[X1]VVILKK[ξαMeNle(6-ylidene)]TEYVHS-NH2; staple 3-10; N-terminus and C-terminus assumed) the “induction of apoptosis (in words)” value [2] was “induction of apoptosis”, the Dead cells ([2]; control 1.40%) was 2.30% and the Apoptotic cell ([2]; control 2.20%) was 9.80%. For the same compound, the “tumor growth / cancer progression (in words)” value ([3]; 10 mg/kg) was “reduced significantly tumor growth”, the “tumor growth / cancer progression (in words)” value ([3]; listed as N10, 10 mg/kg) was “slows down cancer progression” and the “tumor reduction with respect to the control” value ([3]; at the end-time (when the control is sacrificed), 10 mg/kg i.v.) was 53%. The “Normalized Tumor Volume” value ([3]; day of treatment 1, control 1) was 1 unit, the “Normalized Tumor Volume” value ([3]; day of treatment 7, control 2) was 1.3 unit and the “Normalized Tumor Volume” value ([3]; day of treatment 9, control 3) was 1.7 unit. For the same compound, the “Normalized Tumor Volume” value ([3]; day of treatment 14, control 5.5) was 2.3 unit, the “Normalized Tumor Volume” value ([3]; day of treatment 19, control 9) was 4 unit and the “anti-cancer activity (in words)” value ([1]; several glioblastoma cell lines, compared with wild type IDP-wtLN10) was “high anti-cancer activity”.
For `CC(C)C[C@@H]1NC(=O)[C@H](Cc2ccccc2)NC(=O)[C@H](CO)NC(=O)[C@H](CO)NC(=O)C(C)(NC(=O)[C@H](CC(C)C)NC(=O)[C@H](CC(=O)O)NC(=O)[C@H](CC(N)=O)NC(=O)[C@H](CCCNC(=N)N)NC(=O)[C@H](CCCNC(=N)N)NC(=O)[C@H](CCC(N)=O)NC(=O)[C@@H](N)CCCNC(=N)N)CCCCCCC=CCCCC(C)(C(=O)N[C@@H](CC(=O)O)C(=O)N[C@@H](Cc2c[nH]cn2)C(N)=O)NC(=O)[C@H](CC(C)C)NC(=O)[C@H]([C@@H](C)O)NC1=O` (stereo partly drawn) [IDP-NS16] (H-RQRRNDL[X1]SSFLTL[ξαMeNle(6-ylidene)]DH-NH2; staple 8-15; N-terminus and C-terminus assumed), the “anti-cancer activity (in words)” value ([1]; tumor cell lines) was “anti-cancer activity”.
For `CC(C)C[C@H](NC(=O)[C@H](CC(=O)O)NC(=O)[C@H](CC(N)=O)NC(=O)[C@H](CCCNC(=N)N)NC(=O)[C@@H](N)CCCNC(=N)N)C(=O)N[C@@H](CCCNC(=N)N)C(=O)N[C@@H](CO)C(=O)NC1(C)CCCCCCC=CCCCC(C)(C(=O)N[C@H](C(=O)N2CCC[C@H]2C(N)=O)C(C)C)NC(=O)[C@H](CC(=O)O)NC(=O)[C@H](CCCNC(=N)N)NC(=O)[C@H](CC(C)C)NC(=O)[C@H]([C@@H](C)O)NC(=O)[C@H](CC(C)C)NC(=O)[C@H](Cc2ccccc2)NC1=O` (stereo partly drawn) [Na05] (H-RRNDLRS[X1]FLTLRD[ξαMeNle(6-ylidene)]VP-NH2; staple 8-15; N-terminus and C-terminus assumed), the “anti-cancer activity (in words)” value ([1]; tumor cell lines) was “anti-cancer activity”.
